The other results are listed elsewhere or left out. These are further read-outs of the screen, such as a control signal, another cell line or another target. No call is given for them. Compounds called inactive in the main read-out are mostly missing here. Words in brackets tell the shape of the fitted curve; partial curves, single points and poor fits give uncertain potencies.

A short description of the assay: qHTS Assay for Lipid Storage Modulators in Drosophila S3 Cells.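 For cell number change: cells counted by Cell Tracker Red CMTPX staining in the red channel.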 As to conditions: BODIPY lipid droplet fluorescence, 18-24 h; for cell number change: measured here: cell count max response, cells fed with added oleic acid. A digest of the protocol: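 Drosophila S3 cells got compounds at several concentrations plus oleic acid (400 uM solution). Laser-scanning cytometry with 488 nm excitation read lipid droplets at 500-530 nm and cells at 575-640 nm. Percent activity was relative to 20 uM Triacsin C.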
(In general: In qHTS, concentration-response curves come from the screen itself.)

Setting [1] is: measured here: lipid fluorescence (Fed channel) AC50, cells fed with added oleic acid.
Setting [2] is: measured here: cell number channel AC50, cells fed with added oleic acid.

For orientation: AC50 means the concentration at which the activity in the assay is half-maximal. The low end stands for greater potency, the high end for weaker potency. On to `CC1(C)OC(=O)C(=CNCC(=O)NCC(=O)O)C(=O)O1`, for which the cell number change was -17.3%. Besides, under setting [1], the AC50 is 8.2 µM [falling, partial curve].
Regarding `Cc1ccc(OCC(=O)Nc2cccc(C)n2)c(C)c1`, the cell number change was -23.3%. Further, the AC50 under setting [1] was 29.1 µM [rising, single point].
For the compound `COC(=O)C1=C(C)Nc2c(c(=O)n(C)c(=O)n2C)C1c1ccc(Cl)cc1` (centres undefined), the cell number change was -0.0868%. The half-maximal activity concentration (AC50) under setting [1] is 0.326 µM [rising, full curve, poor fit].
With `Cc1ccc(S(=O)(=O)/N=C(/c2ccccc2)N2CCOCC2)c(C)c1`, the cell number change was 15.6%. Moreover, the AC50 under setting [1] is 6.51 µM [rising, single point].
As to `O=C(NC1CCCC1)C(c1ccccc1F)N(C(=O)c1csnn1)c1ccccc1` (centres undefined), the cell number change is -21.4%.
On to `CC(C)(C)NC(=O)CCN(/N=C/c1ccncc1)C1=NS(=O)(=O)c2ccccc21`, for which the cell number change is -4.49%.
For the compound `COC(=O)CNC(=O)CCc1nnc(C2(c3ccc(Cl)cc3)CCC2)o1`, the cell number change was found to be 12.7%. Besides, the AC50 under setting [1] was 0.00517 µM [falling, full curve, poor fit].
Regarding `O=C(CN1C(=O)S/C(=C\C=C\c2ccccc2)C1=O)Nc1cccc(O)c1`, the cell number change is -9.39%. Also, the AC50 under setting [1] is 18.4 µM [falling, single point].
`CCc1nnc(NC(=O)CSc2ncnc3c2oc2ccccc23)s1`: the cell number change was -8.02%. The AC50 under setting [1] is 0.116 µM [rising, full curve, poor fit].
For `O=C(Nc1ccc(N2CCOCC2)c(Cl)c1)c1c(F)c(F)c(F)c(F)c1F`, the cell number change is -11.9%. In addition, under setting [1], the half-maximal activity concentration (AC50) is 6.51 µM [falling, single point].
With `Cc1c(C(=O)OCC(=O)N2CC(=O)Nc3ccccc32)oc2ccc(Br)cc12`, the cell number change was found to be 14.9%.
As to `CCOC(=O)C1CCN(Cc2cccc(Oc3ccccc3)c2)CC1`, the cell number change is -11.9%. In addition, under setting [1], the concentration at half-maximal activity (AC50) is 3.66 µM [falling, single point].
With `Cc1nc(N(CCO)C2CCCCC2)c2nnn(Cc3ccccc3)c2n1`, the cell number change was determined as 5.52%. Further, the AC50 under setting [1] was 20.6 µM [falling, single point].
Regarding `CCc1nc(SCC(N)=O)c2c(=O)n(C)c(=O)n(C)c2n1`, the AC50 under setting [2] was 0.366 µM [rising, single point].
Consider `CCOC(=O)N1CCN(c2nc(C(F)(F)F)nc3c(C)cc(C)cc23)CC1`, for which the cell number change is -0.957%. Under setting [1], the AC50 is 3.26 µM [rising, full curve].
As to `Nc1nc(-c2cccc(Br)c2)cs1`, the cell number change was determined as 4.65%.
Take `O=C(NCc1cccnc1)c1ccccc1CCc1ccccc1`: the cell number change was -17.5%.
Turning to `CCOc1ccc(CN2CCNC(=O)C2CC(=O)NCCc2nc(C)c3c(n2)CCC3)cc1` (centres undefined), the AC50 under setting [1] is 3.26 µM [rising, single point].
In the case of `N=C(N)n1c(N)nc2ccccc2c1=O`, the cell number change came out at 12.3%. Under setting [1], the AC50 is 6.51 µM [falling, single point].
Regarding `Cc1cc2ccc(C)c(C)c2nc1SCC(=O)c1cccs1`, the cell number change came out at 60.7%. Besides, under setting [2], the AC50 is 0.651 µM [rising, full curve, poor fit]. The AC50 under setting [1] is 2.31 µM [rising, partial curve].
As to `Cc1cc(NC(=O)c2ccc([N+](=O)[O-])o2)ccc1NC(=O)c1ccco1`, the cell number change was -63%. Besides, the concentration at half-maximal activity (AC50) under setting [2] is 14.6 µM [falling, partial curve]. Further, the AC50 under setting [1] is 8.2 µM [falling, partial curve].
As to `Cc1ccccc1C(=O)NC(NC(=O)c1ccccc1C)c1cccc([N+](=O)[O-])c1`, the AC50 by setting is: under setting [2], 0.092 µM [falling, full curve, poor fit]; under setting [1], 4.11 µM [rising, single point].
On to `CCOC(=O)N1CCN(c2c(NCCN3CCN(c4ccccc4F)CC3)c(=O)c2=O)CC1`, for which the cell number change is -13.2%. Further, the half-maximal activity concentration (AC50) under setting [2] was 3.26 µM [falling, single point].
For the compound `COc1ccc(NC(=O)c2ccco2)c(OC)c1`, the cell number change was 50.2%. For the same compound, the AC50 under setting [2] is 18.4 µM [rising, single point]. The AC50 under setting [1] was 6.51 µM [falling, partial curve, poor fit].
Turning to `Cc1ccc(-c2nc(S(=O)(=O)c3ccc(C)cc3)c(N3CCOCC3)o2)cc1`, the cell number change is -8.97%. Further, the AC50 under setting [1] is 29.1 µM [rising, single point].
For `O=C(N/N=C/c1ccc(Cl)s1)C(O)c1ccccc1` (centres undefined), the cell number change was -13.2%. Moreover, under setting [1], the AC50 was 0.116 µM [rising, full curve, poor fit].
With `COc1ccc(NC(=O)CO/N=C2/CCCc3nonc32)c(OC)c1`, the cell number change was determined as 8.06%. Besides, under setting [2], the AC50 is 0.411 µM [falling, full curve, poor fit].
Take `N=C(N)SCc1cn2ccccc2n1`: the cell number change stood at 23%. For the same compound, under setting [2], the AC50 was 0.82 µM [rising, full curve, poor fit].
On to `COCC(C)n1c(C)cc(C(=O)COC(=O)c2ccc(N3CCCC3=O)cc2)c1C` (centres undefined), for which the cell number change came out at 9.07%. Moreover, the half-maximal activity concentration (AC50) under setting [1] is 5.8 µM [falling, single point].
As to `COc1ccc(NS(=O)(=O)c2cc(NC(=O)/C=C/c3ccccc3OC)ccc2N2CCCCC2)cc1`, the cell number change is 14.1%. For the same compound, the AC50 under setting [1] is 1.84 µM [rising, full curve].
`CCOc1ccccc1-c1nnc(SCC(=O)NC2(C#N)CCCC2)o1`: the AC50 under setting [1] is 32.6 µM [falling, single point].
On to `O=C(NCC(=O)N1CCCCCC1)c1ccc(OC(F)F)cc1`, for which the cell number change amounted to 8.38%.
For the compound `CC(CCc1ccc(O)cc1)NC(c1ccccc1)c1ccc(Cl)cc1` (centres undefined), the cell number change is -70.1%. For the same compound, the AC50 under setting [2] is 18.4 µM [falling, partial curve]. Moreover, under setting [1], the half-maximal activity concentration (AC50) is 14.6 µM [falling, partial curve, poor fit].
Turning to `CC(=O)N(\C=C/C=C/C=C1\Sc2ccccc2C1=O)c1ccccc1`, the cell number change was -12.3%. Also, the AC50 under setting [2] was 6.51 µM [falling, single point]. The AC50 under setting [1] is 6.51 µM [falling, single point].
On to `COc1ccc(CNC(=O)CN(C(=O)CCC(=O)Nc2nccs2)c2ccc(C)cc2)cc1`, for which the cell number change turned out to be 113%. Moreover, the half-maximal activity concentration (AC50) under setting [2] is 25.9 µM [rising, single point].
As to `CCc1ccc(NC(=S)NNC(=O)c2ccccc2OC(F)F)cc1`, the half-maximal activity concentration (AC50) under setting [1] is 0.00461 µM [rising, full curve, poor fit].
`CCOC(=O)C1=C(C)N(C)C(=O)NC1c1cccc2ccccc12` (centres undefined): the cell number change is 21.4%.
`S=c1[nH]nc(-c2ccco2)n1-c1ccc(Cl)cc1`: the cell number change is -14.1%. For the same compound, under setting [1], the AC50 is 4.11 µM [falling, full curve, poor fit].
Consider `O=C1CCC([N+](=O)[O-])C(c2cccc(Cl)c2Cl)N1` (centres undefined), for which the cell number change is 3.09%.
For the compound `Cc1ccc(/C=N/n2c(C3CCCCC3)n[nH]c2=S)o1`, the cell number change is -47.6%. The AC50 under setting [2] is 29.1 µM [falling, partial curve]. For the same compound, the half-maximal activity concentration (AC50) under setting [1] was 11.6 µM [falling, partial curve, poor fit].

(Values after PubChem BioAssay AID2685 (National Center for Advancing Translational Sciences (NCATS), 2010).)
